Assay results: PubChem BioAssay AID485314 (National Center for Advancing Translational Sciences (NCATS), 2010)
Hit rate of the full screen: of about 340,000 compounds, about 4,500 (1.3%) were called active. The inconclusive results got no clear call from the source; some entries with a clear call stand among them for comparison. The call rests on the fitted dose curve; in most records, active means well fitted inhibition curve with a large enough effect; inconclusive means small, poorly fitted or top-dose-only effect, or another doubt; inactive means no such curve, though single readings can be large or run the other way. Potencies beside an inconclusive call are fits to weak or partial responses and may not hold up.

Target: DNA polymerase beta (Homo sapiens) (UniProt P06746)
Test: qHTS Assay for Inhibitors of DNA Polymerase Beta
Conditions: Pol beta primer extension/strand displacement, fluorescence kinetic; activity change, negative = inhibition: at 114 µM (top of the series)
Outline: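 Human Pol beta at 10 nM; strand-displacement substrate 50 nM final. Compound exposure 15 min at room temperature before start, reaction 10 min at room temperature.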
On the % scale 0 is the no-effect control and ±100 the full control effect; potency means the concentration at half of the fitted maximal effect.

Potency, active:
COc1cc(C)ccc1OCCOc1cc(C)ccc1Cl 12.6 µM, NS(=O)(=O)c1ccc(CNC(=O)/C=C/c2ccco2)cc1 22.4 µM, CS(=O)(=O)N(CC(=O)NCc1ccco1)c1ccc(OCc2ccccc2)cc1 15.8 µM, O=C(O)c1cccc(-c2ccc(/C=N/NC(=O)c3cccnc3)o2)c1 25.1 µM, CC(C)c1ccc(/C=C2\SC(=S)N(CCC(=O)NCCCn3ccnc3)C2=O)cc1 39.8 µM, CC(C)n1c(=O)c2c(O)cc(=O)oc2c2ccccc21 17.8 µM

Potency, inconclusive:
Cc1cc(Cl)ccc1NC(=S)N1CCN(Cc2ccccc2)CC1 50.1 µM [inhibitor, partial curve], COc1ccc(-n2nc(C(=O)NCC(=O)NCc3ccc(F)cc3)c3ccccc3c2=O)cc1OC 5.62 µM [inhibitor, full curve], CC(C)(C)Cc1nnc(NC(=O)CSc2ccccc2)s1 50.1 µM [inhibitor, single point], CCOC(=O)C1CCN(c2c(NCc3ccc(C(=O)NC4CCCC4)cc3)c(=O)c2=O)CC1 25.1 µM [inhibitor, partial curve, poor fit], O=C(CCc1nc(-c2cccs2)no1)Nc1cnc2ccccc2c1 20 µM [inhibitor, full curve, poor fit], O=C(/C=C/c1cccc([N+](=O)[O-])c1)Nc1cccc(NC(=O)c2ccco2)c1 25.1 µM [inhibitor, partial curve, poor fit], C/C=C/c1ccc(OCC(=O)O)c(OC)c1 44.7 µM [inhibitor, partial curve], CCn1c(=O)c2c(n3cnnc13)-c1ccccc1CC21CCCCC1 79.4 µM [inhibitor, partial curve], CCN(CC)Cc1cc(NC2=NS(=O)(=O)c3ccccc32)ccc1OC(=O)c1ccccc1 25.1 µM [inhibitor, single point], Cc1cccc(NC(=O)c2ccc3c(c2)C(=O)N(Cc2cccnc2)C3=O)c1C 39.8 µM [inhibitor, single point], CC(=O)n1cc(/C=N/NC(=O)c2ccc([N+](=O)[O-])cc2)c2ccccc21 89.1 µM [inhibitor, single point], Cc1csc(NC(=O)CSc2nc3sc(C)c(C)c3c(=O)[nH]2)n1 79.4 µM [inhibitor, single point], CC(=O)COc1cc2c(-c3cc4ccccc4o3)cc(=O)oc2cc1C 20 µM [inhibitor, single point], CCOC(=O)c1c(NC(=O)CN2CCN(C(=O)C3CCCO3)CC2)sc(C)c1C (stereo not drawn) 11.2 µM [inhibitor, full curve, poor fit], O=C(CSc1nnc2c(n1)[nH]c1ccccc12)Nc1ccc(N2CCOCC2)cc1 28.2 µM [inhibitor, single point], COc1ccc(CN2CCCC(CNC(=O)c3ccc(F)cc3)C2)cc1OC (stereo not drawn) 89.1 µM [inhibitor, single point], O=c1[nH]c(C2CC2)nc2sc3c(c12)CCCC3 79.4 µM [inhibitor, single point], O=C1CCCC2=C1C(c1ccncc1)c1c(nc(SCc3ccccc3Cl)[nH]c1=O)N2 (stereo not drawn) 56.2 µM [inhibitor, partial curve], O=C(CN1CCC(n2nnc3cc(F)ccc32)CC1)NCc1ccco1 25.1 µM [inhibitor, full curve, poor fit], O=C(CSc1nnc(-c2ccco2)n1Cc1ccccc1)c1ccc(F)cc1 39.8 µM [inhibitor, partial curve], COc1ccc(CCNC(=O)CS(=O)(=O)c2cn(CC(=O)N(C(C)C)C(C)C)c3ccccc23)cc1OC 39.8 µM [inhibitor, single point], COc1ccccc1NC(=O)Cn1cc(S(=O)(=O)Cc2ccccc2)c2ccccc21 3.55 µM [inhibitor, full curve], Cc1cccc(-n2nnc3cnn(C)c3c2=O)c1 89.1 µM [inhibitor, partial curve], Cc1ccc(O)c(-c2cc(-c3ccccc3F)[nH]n2)c1 0.891 µM [inhibitor, full curve, poor fit], CCc1ccccc1NC(=O)C1CCN(C(=O)c2cccs2)CC1 0.0794 µM [inhibitor, full curve, poor fit], COCCCNC(=O)COc1ccc2oc3c(c2c1)CCCC3 100 µM [inhibitor, single point], O=C(CCC(=O)N1CCN(C2CCCCC2)CC1)Nc1nnc(C(F)(F)F)s1 2.82 µM [inhibitor, full curve, poor fit], COCCNS(=O)(=O)c1ccc2c(c1)C(=O)c1cc(S(=O)(=O)NCCOC)ccc1-2 89.1 µM [inhibitor, single point], COc1ccc(OCC(=O)Nc2ccc3oc(-c4ccncc4)nc3c2)cc1 20 µM [inhibitor, partial curve, poor fit]

Activity change, negative = inhibition, inactive:
CCOc1ccc(N2CC(NC(=O)c3ccco3)CC2=O)cc1 (stereo not drawn) 19.9%, CCOC(=O)Cc1csc(NC(=O)c2sc3nc4ccc(C)cc4cc3c2N)n1 -2.8%, O=C(CN1CCCC1)NC(c1ccccc1)c1ccccc1 17.6%, O=C(NCCc1cccs1)C1CC(c2ccccc2[N+](=O)[O-])=NO1 (stereo not drawn) 12.6%, COc1ccc(C(=O)C[n+]2cccc3cc(C)ccc32)cc1 4.76%, O=C(N/N=C/c1ccc(OC(F)F)cc1)c1cc[n+]([O-])cc1 11.9%

Activity change, negative = inhibition, inconclusive:
CCn1c(=NC(=O)C2COc3ccccc3O2)sc2c(C)ccc(OC)c21 (stereo not drawn) -95.7% [inhibitor], Cc1cc2nc(-c3cccc(NC(=O)c4cccc5ccccc45)c3)oc2cc1C -41% [inhibitor]
